# In the supplement of paper PMC12823440, “Inhibitors supercharge kinase turnover through native proteolytic circuits” (Nature, 2025):
# By UniProt entry, the sequences of proteins in these tests, tags left out. Where a name states a change or a piece, a line headed by the entry shows the natural chain unless it says otherwise.
# UniProt P07949, whole entry, looked up: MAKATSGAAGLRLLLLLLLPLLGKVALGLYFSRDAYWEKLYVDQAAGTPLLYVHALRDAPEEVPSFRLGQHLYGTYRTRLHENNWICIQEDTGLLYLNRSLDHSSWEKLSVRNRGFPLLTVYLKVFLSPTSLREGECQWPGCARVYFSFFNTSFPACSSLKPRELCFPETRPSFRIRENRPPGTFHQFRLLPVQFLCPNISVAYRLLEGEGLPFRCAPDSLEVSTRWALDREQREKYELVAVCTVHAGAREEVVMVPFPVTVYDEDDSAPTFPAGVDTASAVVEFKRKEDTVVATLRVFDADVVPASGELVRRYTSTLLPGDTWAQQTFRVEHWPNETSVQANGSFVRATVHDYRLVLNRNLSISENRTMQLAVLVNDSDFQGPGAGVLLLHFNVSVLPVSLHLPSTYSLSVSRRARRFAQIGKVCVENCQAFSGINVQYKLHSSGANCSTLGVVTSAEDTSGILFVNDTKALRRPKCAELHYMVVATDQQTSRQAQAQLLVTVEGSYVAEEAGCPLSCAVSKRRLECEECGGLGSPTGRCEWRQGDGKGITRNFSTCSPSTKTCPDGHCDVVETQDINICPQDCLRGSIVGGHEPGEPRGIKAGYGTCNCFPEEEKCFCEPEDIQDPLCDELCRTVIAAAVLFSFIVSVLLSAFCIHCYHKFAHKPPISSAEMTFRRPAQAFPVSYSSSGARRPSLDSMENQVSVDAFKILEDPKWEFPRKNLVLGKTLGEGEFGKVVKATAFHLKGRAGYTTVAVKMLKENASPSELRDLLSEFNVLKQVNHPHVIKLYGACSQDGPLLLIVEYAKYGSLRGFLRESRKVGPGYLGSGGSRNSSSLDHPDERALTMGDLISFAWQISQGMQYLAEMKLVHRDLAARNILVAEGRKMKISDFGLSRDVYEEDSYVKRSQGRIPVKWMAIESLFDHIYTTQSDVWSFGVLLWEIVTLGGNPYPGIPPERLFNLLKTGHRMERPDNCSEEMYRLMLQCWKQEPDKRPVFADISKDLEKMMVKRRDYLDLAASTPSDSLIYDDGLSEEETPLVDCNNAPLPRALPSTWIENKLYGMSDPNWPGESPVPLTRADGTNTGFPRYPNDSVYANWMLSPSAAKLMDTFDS
# UniProt P07949, whole entry M918T, looked up: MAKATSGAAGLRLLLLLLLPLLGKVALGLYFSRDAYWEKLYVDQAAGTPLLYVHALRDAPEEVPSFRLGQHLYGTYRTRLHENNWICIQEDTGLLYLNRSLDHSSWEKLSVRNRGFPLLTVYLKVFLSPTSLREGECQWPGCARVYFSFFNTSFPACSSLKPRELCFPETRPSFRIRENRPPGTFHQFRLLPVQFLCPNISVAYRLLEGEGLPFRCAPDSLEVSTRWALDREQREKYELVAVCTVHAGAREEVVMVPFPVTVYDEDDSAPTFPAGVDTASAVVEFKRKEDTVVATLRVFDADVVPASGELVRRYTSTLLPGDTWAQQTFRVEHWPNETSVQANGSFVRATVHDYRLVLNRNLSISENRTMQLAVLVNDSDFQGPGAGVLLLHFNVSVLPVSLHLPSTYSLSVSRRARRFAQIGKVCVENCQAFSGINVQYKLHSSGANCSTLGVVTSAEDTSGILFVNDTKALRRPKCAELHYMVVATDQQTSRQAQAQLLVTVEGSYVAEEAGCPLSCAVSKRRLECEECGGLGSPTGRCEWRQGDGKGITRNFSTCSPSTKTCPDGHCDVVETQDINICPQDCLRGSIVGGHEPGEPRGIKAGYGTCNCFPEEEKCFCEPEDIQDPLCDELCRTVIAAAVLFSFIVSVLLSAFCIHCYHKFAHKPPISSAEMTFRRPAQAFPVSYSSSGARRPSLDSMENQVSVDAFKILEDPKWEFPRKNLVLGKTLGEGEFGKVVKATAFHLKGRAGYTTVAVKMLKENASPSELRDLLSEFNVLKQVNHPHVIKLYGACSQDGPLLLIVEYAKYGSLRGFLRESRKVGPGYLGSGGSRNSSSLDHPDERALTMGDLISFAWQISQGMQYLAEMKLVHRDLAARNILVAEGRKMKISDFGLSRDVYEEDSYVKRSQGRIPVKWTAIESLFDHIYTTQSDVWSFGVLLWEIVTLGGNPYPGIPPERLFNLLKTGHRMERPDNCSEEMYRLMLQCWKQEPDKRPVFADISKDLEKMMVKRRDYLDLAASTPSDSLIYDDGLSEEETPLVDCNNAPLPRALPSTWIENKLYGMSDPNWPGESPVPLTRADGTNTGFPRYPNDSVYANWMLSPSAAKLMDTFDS
# UniProt Q13546: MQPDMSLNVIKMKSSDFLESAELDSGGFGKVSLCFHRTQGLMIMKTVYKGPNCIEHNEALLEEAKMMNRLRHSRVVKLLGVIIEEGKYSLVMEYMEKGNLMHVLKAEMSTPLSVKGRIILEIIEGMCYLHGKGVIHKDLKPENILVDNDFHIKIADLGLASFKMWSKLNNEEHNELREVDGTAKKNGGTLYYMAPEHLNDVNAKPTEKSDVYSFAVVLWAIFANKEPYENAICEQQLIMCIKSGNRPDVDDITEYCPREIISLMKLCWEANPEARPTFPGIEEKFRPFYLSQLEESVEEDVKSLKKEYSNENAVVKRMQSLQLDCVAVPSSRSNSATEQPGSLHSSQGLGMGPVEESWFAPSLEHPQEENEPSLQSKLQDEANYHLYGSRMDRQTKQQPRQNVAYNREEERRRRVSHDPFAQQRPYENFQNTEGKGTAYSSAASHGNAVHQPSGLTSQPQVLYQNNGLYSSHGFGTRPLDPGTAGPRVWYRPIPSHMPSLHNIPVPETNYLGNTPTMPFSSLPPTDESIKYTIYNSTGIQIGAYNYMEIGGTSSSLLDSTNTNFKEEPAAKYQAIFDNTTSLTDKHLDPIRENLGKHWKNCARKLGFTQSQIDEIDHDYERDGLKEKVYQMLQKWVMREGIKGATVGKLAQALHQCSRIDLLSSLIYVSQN
# UniProt Q15418, whole entry: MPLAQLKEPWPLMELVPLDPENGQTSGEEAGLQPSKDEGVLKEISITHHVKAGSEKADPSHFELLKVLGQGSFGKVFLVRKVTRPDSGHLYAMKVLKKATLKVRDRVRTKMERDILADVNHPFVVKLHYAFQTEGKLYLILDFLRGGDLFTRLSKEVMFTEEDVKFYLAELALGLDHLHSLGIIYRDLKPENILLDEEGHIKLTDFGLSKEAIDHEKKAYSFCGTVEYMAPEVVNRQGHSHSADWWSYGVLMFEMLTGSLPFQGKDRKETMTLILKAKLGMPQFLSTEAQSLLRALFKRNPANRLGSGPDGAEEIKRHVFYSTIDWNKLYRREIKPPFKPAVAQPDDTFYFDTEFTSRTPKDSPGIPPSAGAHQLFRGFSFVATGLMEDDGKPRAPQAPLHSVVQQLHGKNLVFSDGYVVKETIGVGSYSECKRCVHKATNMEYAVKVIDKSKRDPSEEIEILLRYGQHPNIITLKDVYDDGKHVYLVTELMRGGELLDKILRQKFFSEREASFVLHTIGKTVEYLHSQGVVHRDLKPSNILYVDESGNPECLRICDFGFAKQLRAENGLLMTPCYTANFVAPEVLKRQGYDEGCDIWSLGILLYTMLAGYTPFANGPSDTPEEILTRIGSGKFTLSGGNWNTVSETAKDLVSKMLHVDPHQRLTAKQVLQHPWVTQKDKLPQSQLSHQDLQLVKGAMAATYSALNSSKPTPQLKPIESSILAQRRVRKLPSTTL
# UniProt Q9NYA1, whole entry: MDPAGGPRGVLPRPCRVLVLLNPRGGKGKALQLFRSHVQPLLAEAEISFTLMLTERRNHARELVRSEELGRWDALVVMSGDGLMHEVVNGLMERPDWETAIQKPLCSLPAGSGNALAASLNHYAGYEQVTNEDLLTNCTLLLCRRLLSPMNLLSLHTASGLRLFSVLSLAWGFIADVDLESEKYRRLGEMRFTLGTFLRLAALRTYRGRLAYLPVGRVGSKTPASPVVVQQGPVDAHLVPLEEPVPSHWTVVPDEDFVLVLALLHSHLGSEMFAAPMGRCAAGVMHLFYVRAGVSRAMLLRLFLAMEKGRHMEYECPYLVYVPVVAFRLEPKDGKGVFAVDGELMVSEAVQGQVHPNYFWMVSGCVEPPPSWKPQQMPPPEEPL
# UniProt Q15208: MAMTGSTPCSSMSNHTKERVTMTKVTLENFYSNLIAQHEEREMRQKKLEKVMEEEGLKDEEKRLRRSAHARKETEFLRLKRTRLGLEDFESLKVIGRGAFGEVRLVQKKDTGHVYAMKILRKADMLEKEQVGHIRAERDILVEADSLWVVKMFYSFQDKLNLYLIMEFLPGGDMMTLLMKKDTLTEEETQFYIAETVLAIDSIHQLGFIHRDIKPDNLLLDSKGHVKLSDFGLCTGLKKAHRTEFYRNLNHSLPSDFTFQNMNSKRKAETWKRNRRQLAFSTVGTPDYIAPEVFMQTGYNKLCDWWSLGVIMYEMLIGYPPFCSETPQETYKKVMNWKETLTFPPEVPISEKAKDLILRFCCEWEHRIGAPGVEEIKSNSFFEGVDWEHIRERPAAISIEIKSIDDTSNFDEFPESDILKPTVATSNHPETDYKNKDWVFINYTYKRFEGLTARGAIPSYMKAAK
# UniProt Q6PHR2: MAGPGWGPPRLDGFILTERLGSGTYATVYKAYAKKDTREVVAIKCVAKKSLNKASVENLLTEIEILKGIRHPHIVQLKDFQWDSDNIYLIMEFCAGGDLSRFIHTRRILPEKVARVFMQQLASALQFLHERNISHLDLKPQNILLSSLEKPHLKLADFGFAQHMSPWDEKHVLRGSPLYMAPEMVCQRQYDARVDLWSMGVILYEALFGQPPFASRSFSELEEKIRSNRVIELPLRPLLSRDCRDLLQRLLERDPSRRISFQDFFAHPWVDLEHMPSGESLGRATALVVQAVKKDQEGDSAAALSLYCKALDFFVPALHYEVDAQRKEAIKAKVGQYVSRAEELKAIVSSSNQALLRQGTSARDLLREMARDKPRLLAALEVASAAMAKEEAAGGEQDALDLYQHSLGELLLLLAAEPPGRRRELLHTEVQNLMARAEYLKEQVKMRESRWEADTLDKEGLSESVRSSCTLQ
# UniProt P00519, whole entry: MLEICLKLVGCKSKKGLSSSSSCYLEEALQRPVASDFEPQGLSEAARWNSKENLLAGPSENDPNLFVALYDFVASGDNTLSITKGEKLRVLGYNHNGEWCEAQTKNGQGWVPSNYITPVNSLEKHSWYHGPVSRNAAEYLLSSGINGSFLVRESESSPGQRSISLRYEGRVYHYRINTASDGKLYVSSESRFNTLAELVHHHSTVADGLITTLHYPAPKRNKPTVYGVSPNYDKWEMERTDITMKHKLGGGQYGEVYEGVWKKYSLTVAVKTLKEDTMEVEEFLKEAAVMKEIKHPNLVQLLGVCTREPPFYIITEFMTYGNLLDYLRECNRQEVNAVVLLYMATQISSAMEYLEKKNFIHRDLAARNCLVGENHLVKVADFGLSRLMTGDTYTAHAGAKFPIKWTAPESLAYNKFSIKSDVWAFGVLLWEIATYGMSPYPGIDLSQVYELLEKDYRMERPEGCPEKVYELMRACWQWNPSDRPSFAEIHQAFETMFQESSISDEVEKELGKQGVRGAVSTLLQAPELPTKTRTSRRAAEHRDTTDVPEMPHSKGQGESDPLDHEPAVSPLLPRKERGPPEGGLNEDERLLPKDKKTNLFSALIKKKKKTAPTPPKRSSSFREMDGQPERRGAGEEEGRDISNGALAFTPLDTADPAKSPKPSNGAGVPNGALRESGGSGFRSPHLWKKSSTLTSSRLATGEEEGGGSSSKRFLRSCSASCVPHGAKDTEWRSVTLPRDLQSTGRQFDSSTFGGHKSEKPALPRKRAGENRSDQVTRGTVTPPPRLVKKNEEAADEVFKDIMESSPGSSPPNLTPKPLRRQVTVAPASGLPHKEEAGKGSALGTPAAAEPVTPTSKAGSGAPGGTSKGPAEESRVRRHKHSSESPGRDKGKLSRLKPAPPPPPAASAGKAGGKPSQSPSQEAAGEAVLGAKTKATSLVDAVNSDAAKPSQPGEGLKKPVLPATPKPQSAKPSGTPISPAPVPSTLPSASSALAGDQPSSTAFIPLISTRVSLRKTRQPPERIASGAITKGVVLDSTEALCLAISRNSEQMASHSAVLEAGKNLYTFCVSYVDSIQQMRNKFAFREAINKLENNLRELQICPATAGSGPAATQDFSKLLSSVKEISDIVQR
# UniProt P31749: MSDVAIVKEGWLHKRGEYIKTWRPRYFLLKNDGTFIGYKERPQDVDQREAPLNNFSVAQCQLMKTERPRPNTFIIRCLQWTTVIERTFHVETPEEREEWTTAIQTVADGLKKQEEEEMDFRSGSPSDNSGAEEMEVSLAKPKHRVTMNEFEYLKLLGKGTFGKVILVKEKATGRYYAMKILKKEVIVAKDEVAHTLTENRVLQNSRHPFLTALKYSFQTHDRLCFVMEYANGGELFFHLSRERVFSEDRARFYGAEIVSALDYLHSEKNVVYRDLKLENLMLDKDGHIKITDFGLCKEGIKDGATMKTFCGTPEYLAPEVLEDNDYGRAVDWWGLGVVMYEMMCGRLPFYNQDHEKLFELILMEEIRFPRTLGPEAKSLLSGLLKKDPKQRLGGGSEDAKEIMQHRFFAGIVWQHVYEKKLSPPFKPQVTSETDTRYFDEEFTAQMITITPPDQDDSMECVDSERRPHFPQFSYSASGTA
# The other results are listed elsewhere or left out. Hit calls seldom repeat between salt and free forms of one compound.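 Kinases, fused to nanoluciferase, were expressed in K562 cells; luminescence was measured every 4 h from 2 to 18 h as percent of control (DMSO = 100%, positive control = 0%). A time point is decreased if signal falls significantly (2 sigma). Hits were called by the authors by a rule that is not shown; the count of time points alone does not decide it.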
# Columns and labels:
# Conditions in all cases: K562; 2-18 h
# RET = RET (UniProt P07949); assay: kinase-Nluc reporter destabilization hit call (1 = scored as downregulated) (binary); higher = compound decreases kinase abundance
# [1] = target: RET_M918T (clone: RET_mut) (UniProt P07949); assay: as above
# RIOK1 = RIOK1 (UniProt Q9BRS2); assay: as above
# RIPK1 = RIPK1 (UniProt Q13546); assay: as above
# RIPK2 = RIPK2 (UniProt O43353); assay: as above
# ROR2 = ROR2 (UniProt Q01974); assay: as above
# RPS6KA1 = RPS6KA1 (UniProt Q15418); assay: as above
# SPHK1 = SPHK1 (UniProt Q9NYA1); assay: as above
# SRC = SRC (UniProt P12931); assay: as above
# STK24 = STK24 (UniProt Q9Y6E0); assay: as above
# STK38 = STK38 (UniProt Q15208); assay: as above
# SYK = SYK (UniProt P43405); assay: as above
# TEC = TEC (UniProt P42680); assay: as above
# TYK2 = TYK2 (UniProt P29597); assay: as above
# ULK3 = ULK3 (UniProt Q6PHR2); assay: as above
# YES1 = YES1 (UniProt P07947); assay: as above
# ZAK = ZAK (UniProt Q9NYL2); assay: as above
# ZAP70 = ZAP70 (UniProt P43403); assay: as above
# ABL1 = ABL1 (UniProt P00519); assay: number of time points (of 5) at which kinase-Nluc abundance scored as decreased, DMSO-normalised (count); higher = more persistent destabilization
# AKT1 = AKT1 (UniProt P31749); assay: as above
Structure (SMILES),kinase-Nluc reporter destabilization hit call (RET),kinase-Nluc reporter destabilization hit call [1],kinase-Nluc reporter destabilization hit call (RIOK1),kinase-Nluc reporter destabilization hit call (RIPK1),kinase-Nluc reporter destabilization hit call (RIPK2),kinase-Nluc reporter destabilization hit call (ROR2),kinase-Nluc reporter destabilization hit call (RPS6KA1),kinase-Nluc reporter destabilization hit call (SPHK1),kinase-Nluc reporter destabilization hit call (SRC),kinase-Nluc reporter destabilization hit call (STK24),kinase-Nluc reporter destabilization hit call (STK38),kinase-Nluc reporter destabilization hit call (SYK),kinase-Nluc reporter destabilization hit call (TEC),kinase-Nluc reporter destabilization hit call (TYK2),kinase-Nluc reporter destabilization hit call (ULK3),kinase-Nluc reporter destabilization hit call (YES1),kinase-Nluc reporter destabilization hit call (ZAK),kinase-Nluc reporter destabilization hit call (ZAP70),number of time points (ABL1),number of time points (AKT1)
Cn1c(=O)c2c(nc(S(C)(=O)=O)n2C)n(CC#Cc2cccc(O)c2)c1=O (2.5 µM),inactive: 0,inactive: 0,inactive: 0,inactive: 0,inactive: 0,inactive: 0,inactive: 0,inactive: 0,inactive: 0,inactive: 0,inactive: 0,inactive: 0,inactive: 0,inactive: 0,inactive: 0,inactive: 0,inactive: 0,inactive: 0,0,0
Cc1ccc(C(=O)NC2CC2)cc1-n1ncc(C(=O)c2cccc(C#N)c2)c1N [Acumapimod] (10 µM),inactive: 0,inactive: 0,inactive: 0,inactive: 0,inactive: 0,inactive: 0,inactive: 0,inactive: 0,inactive: 0,inactive: 0,inactive: 0,inactive: 0,inactive: 0,inactive: 0,inactive: 0,inactive: 0,inactive: 0,inactive: 0,0,0
CCc1c[nH]c2ncnc(N3CC[C@](N)(CNC(=O)c4ccc(F)cc4F)C3)c12 (10 µM),inactive: 0,inactive: 0,inactive: 0,inactive: 0,inactive: 0,inactive: 0,inactive: 0,inactive: 0,inactive: 0,inactive: 0,inactive: 0,inactive: 0,inactive: 0,inactive: 0,inactive: 0,inactive: 0,inactive: 0,inactive: 0,0,0
CCn1c(-c2nonc2N)nc2c(C#CC(C)(C)O)ncc(OC[C@H]3CCCNC3)c21 (10 µM),inactive: 0,inactive: 0,inactive: 0,inactive: 0,inactive: 0,inactive: 0,inactive: 0,inactive: 0,inactive: 0,inactive: 0,inactive: 0,inactive: 0,inactive: 0,inactive: 0,inactive: 0,inactive: 0,inactive: 0,inactive: 0,0,0
O=c1cc(-c2ccccc2)oc2cc(O[C@@H]3O[C@H](CO[C@@H]4O[C@H](CO)[C@@H](O)[C@H](O)[C@H]4O)[C@@H](O)[C@H](O)[C@H]3O)c(O)c(O)c12 [Oroxin B] (10 µM),inactive: 0,inactive: 0,inactive: 0,inactive: 0,inactive: 0,inactive: 0,inactive: 0,inactive: 0,inactive: 0,inactive: 0,inactive: 0,inactive: 0,inactive: 0,inactive: 0,inactive: 0,inactive: 0,inactive: 0,inactive: 0,0,0
Clc1ccc(C(c2ccc(Cl)cc2)[n+]2ccn(CC(OCc3ccc(Cl)cc3Cl)c3ccc(Cl)cc3Cl)c2)cc1 (stereo not given) [Calmidazolium chloride] (2.5 µM),inactive: 0,inactive: 0,inactive: 0,inactive: 0,inactive: 0,inactive: 0,inactive: 0,inactive: 0,inactive: 0,inactive: 0,inactive: 0,inactive: 0,inactive: 0,inactive: 0,inactive: 0,inactive: 0,inactive: 0,inactive: 0,4,0
Cc1cnc(NC(=O)c2cc(Oc3cnc(C(=O)N(C)C)nc3)c3cc(C)oc3c2)cn1 (10 µM),inactive: 0,inactive: 0,inactive: 0,inactive: 0,inactive: 0,inactive: 0,inactive: 0,inactive: 0,inactive: 0,inactive: 0,inactive: 0,inactive: 0,inactive: 0,inactive: 0,inactive: 0,inactive: 0,inactive: 0,inactive: 0,0,0
COc1cc2c(cc1O)C[C@H]1c3cc(O)c(OC)cc3CC[N@@+]1(C)C2 [Phellodendrine] (10 µM),inactive: 0,inactive: 0,inactive: 0,inactive: 0,inactive: 0,inactive: 0,inactive: 0,inactive: 0,inactive: 0,inactive: 0,inactive: 0,inactive: 0,inactive: 0,inactive: 0,inactive: 0,inactive: 0,inactive: 0,inactive: 0,0,0
Cc1cc(Nc2cc(N)ncn2)c(=O)n2c1C(=O)NC21CCCCC1 [Tomivosertib] (10 µM),inactive: 0,inactive: 0,inactive: 0,inactive: 0,inactive: 0,inactive: 0,inactive: 0,inactive: 0,inactive: 0,inactive: 0,inactive: 0,inactive: 0,inactive: 0,inactive: 0,inactive: 0,inactive: 0,inactive: 0,inactive: 0,0,0
